Results are given in words; binding and its absence hold for the method and conditions named. Each block holds one binder with its values, some of them ahead of it.
Experiments:
Assay in all cases: SAXS; oligomeric state in solution; proteins purified by gel filtration in 25 mM HEPES pH 7.5, 100 mM NaCl, 5 mM β-mercaptoethanol; 1 to 4 mg/mL; 10 °C; both purified
[1] = target: mut3 (E109K/Q112K/Q114K) NMAD-1A_(21-291) (C. elegans) (UniProt Q8MNT9)
[2] = target: mut3 (E109K/Q112K/Q114K) NMAD-1A_(1-291) (C. elegans) (UniProt Q8MNT9)
[3] = target: WT construct NMAD-1A_(21-263) (C. elegans) (UniProt Q8MNT9)

binding [1]: no binding (tested: 1 to 4 mg/mL)
B1: mut3 (E109K/Q112K/Q114K) NMAD-1A_(21-291) (domain or fragment, UniProt Q8MNT9 21-291)
chain: TTERVKKLRVVEDKHVNYKVFIYDHIRQIAIPTTNLNSQSSLEDIIDESTSCQSVSTDGSIEIDGLTLIHNFLSESEESKILNMIDTVKWAKSKSGRRKQDYGPKVNFKHKKVKTDTFVGMPEYADMLLNKMSEYDVKKLGNYQPFEMCNLEYEEVKKSAIEMHQDDMWIWGNRLISINLINGSVMTLSNDNKSFLCYVHMPHRSLLCMADECRYDWKHGVLAHHIRGRRIALTMREAAKDFAEGGELYEKYGAELIRLGNIRVPLSKTSV

binding [2]: no binding (tested: 1 to 4 mg/mL)
B2: mut3 (E109K/Q112K/Q114K) NMAD-1A_(1-291) (enzyme, UniProt Q8MNT9 1-291)
chain: MGSAEQACGCKGARFCALCETTERVKKLRVVEDKHVNYKVFIYDHIRQIAIPTTNLNSQSSLEDIIDESTSCQSVSTDGSIEIDGLTLIHNFLSESEESKILNMIDTVKWAKSKSGRRKQDYGPKVNFKHKKVKTDTFVGMPEYADMLLNKMSEYDVKKLGNYQPFEMCNLEYEEVKKSAIEMHQDDMWIWGNRLISINLINGSVMTLSNDNKSFLCYVHMPHRSLLCMADECRYDWKHGVLAHHIRGRRIALTMREAAKDFAEGGELYEKYGAELIRLGNIRVPLSKTSV

binding [3]: no binding (tested: 1 to 4 mg/mL)
B3: WT construct NMAD-1A_(21-263) (domain or fragment, UniProt Q8MNT9 21-263)
chain: TTERVKKLRVVEDKHVNYKVFIYDHIRQIAIPTTNLNSQSSLEDIIDESTSCQSVSTDGSIEIDGLTLIHNFLSESEESKILNMIDTVEWAQSQSGRRKQDYGPKVNFKHKKVKTDTFVGMPEYADMLLNKMSEYDVKKLGNYQPFEMCNLEYEEVKKSAIEMHQDDMWIWGNRLISINLINGSVMTLSNDNKSFLCYVHMPHRSLLCMADECRYDWKHGVLAHHIRGRRIALTMREAAKDFA
